For the assay, the system named is P388 leukemia ip, CD2F1 mice, survival T/C. Description: NCI In Vivo Anticancer Drug Screen. Data for tumor model P388 Leukemia (intraperitoneal) in CD2F1 (CDF1) mice. The settings on record: T/C endpoint: median survival time, higher T/C = longer survival.
The mark [1] stands for this setting: dose: 80.0 micrograms/kg/injection, schedule: Q01DX005 (ip), vehicle: saline + alcohol.
[2] abbreviates: dose: 100.0 mg/kg/injection, schedule: Q01DX009 (ip), vehicle: saline with Tween-80.
The mark [3] stands for this setting: dose: 50.0 mg/kg/injection, schedule: Q01DX009 (ip), vehicle: saline.

Structures are written as SMILES. The list is a part of this screen's results and no random one: it is rich in T/C values a quarter to a half above the control, in often repeated tests (any T/C) and in doses without a T/C. Other doses and runs of a compound stand elsewhere. T/C gives the treated animals as a percentage of the vehicle group. Some doses have a count of surviving animals in place of a T/C: the source files T/C as zero there, which appears to mark a toxic dose or a test without result, not a measured value. Some survivor counts are full or nearly so, which does not show that the dose was tolerated: the source hardly ever lists a survival T/C far under the control, and the zero likely stands for such cases as well. Survivors were counted at the toxicity check, usually on the fifth day, unless a day is given; later deaths do not show. Schedule codes are those of the source, read here as Q, the interval in days (D) or hours (H), X, the number of doses. For survival time, the PubChem record calls one and a half times the control and up active, and a quarter to a half above the control has no call in these data; cut-offs in other NCI protocols can differ.

For the molecule `O=c1oc2ccccc2c2c1C(c1ccc3c(c1)OCO3)C=C(c1ccc3c(c1)OCO3)O2` (stereo unspecified), the survivor count by setting is: (dose: 400.0 mg/kg/injection, schedule: Q01DX009 (ip), vehicle: water) 4 of 6; (dose: 600.0 mg/kg/injection, schedule: Q01DX009 (ip), vehicle: water) 5 of 5.
For the molecule `C[C@]12CC[C@@H](OC(=O)N(CCCl)N=O)C[C@@H]1CC[C@@H]1[C@@H]2CC[C@]2(C)C(=O)CC[C@@H]12`, the T/C reads like this: (dose: 62.5 mg/kg/injection, schedule: Q04DX003 (ip), vehicle: saline) 134 % of control; (dose: 250.0 mg/kg/injection, schedule: Q04DX003 (ip), vehicle: saline) 126 % of control. Besides, the survivor count (dose: 100.0 mg/kg/injection, schedule: Q01DX009 (ip), vehicle: other) is reported as 4 of 6.
Take `CCC(/C=C/c1ccccc1)=N\NC(=O)c1ccc(Cl)c(Cl)c1`: the survivor count (dose: 120.0 mg/kg/injection, schedule: Q01DX005 (ip), vehicle: saline with Tween-80) is on record as 6 of 6.
Consider `[Br][Sn]([Br])([CH2]CC[CH2][Sn]([Br])([Br])[c]1ccccc1)[c]1ccccc1`, for which the survivor count is, setting by setting: (dose: 100.0 mg/kg/injection, schedule: Q01DX005 (ip), vehicle: Klucel (hydroxypropylcellulose) (HPC)) 0 of 6; (dose: 200.0 mg/kg/injection, schedule: Q01DX005 (ip), vehicle: Klucel (hydroxypropylcellulose) (HPC)) 0 of 6.
Turning to `CC1C(O)[C@@]2(OC[C@@]34C(=O)CC5(O)[C@H](CCC6Cc7nc8c(nc7C[C@]65C)CC5CC[C@@H]6C7=C[C@H]9O[C@@]%10(O[C@@](C)(CO)C[C@@H]%10O)C(C)[C@@]9(O)[C@]7(C)[C@@H](O)CC6[C@]5(C)C8)C3=CC[C@H]4C2C)OC1(C)C` (stereo partly specified), the survivor count by setting is: (dose: 75.0 micrograms/kg/injection, schedule: Q01DX009 (ip), vehicle: saline + alcohol) 6 of 6; under setting [1], 6 of 6; (dose: 80.0 micrograms/kg/injection, schedule: Q01DX009 (ip), vehicle: saline + alcohol) 6 of 6; (dose: 150.0 micrograms/kg/injection, schedule: Q01DX009 (ip), vehicle: saline + alcohol) 2 of 6; (dose: 160.0 micrograms/kg/injection, schedule: Q01DX005 (ip), vehicle: saline + alcohol) 2 of 6; (dose: 160.0 micrograms/kg/injection, schedule: Q01DX009 (ip), vehicle: saline + alcohol) 1 of 6. Further, the survivor count runs as follows: (dose: 300.0 micrograms/kg/injection, schedule: Q01DX009 (ip), vehicle: saline + alcohol) 0 of 5; (dose: 320.0 micrograms/kg/injection, schedule: Q01DX009 (ip), vehicle: saline + alcohol) 0 of 6; (dose: 600.0 micrograms/kg/injection, schedule: Q01DX009 (ip), vehicle: saline + alcohol) 0 of 4. Under setting [1], the T/C is 130 % of control.
Regarding `O[C@]12CC=CC[C@]1(O)CC(N1CCCCC1)C2`, under setting [2], the survivor count is recorded as 6 of 6.
With `CN(C)c1ccc(/C=C/c2ccc3ccccc3[n+]2C)cc1`, the survivor count runs as follows: (dose: 6.25 mg/kg/injection, schedule: Q01DX009 (ip), vehicle: saline with Tween-80) 0 of 6; (dose: 12.5 mg/kg/injection, schedule: Q01DX009 (ip), vehicle: saline with Tween-80) 0 of 6; (dose: 25.0 mg/kg/injection, schedule: Q01DX009 (ip), vehicle: saline with Tween-80) 0 of 6; (dose: 50.0 mg/kg/injection, schedule: Q04DX003 (ip), vehicle: saline with Tween-80) 0 of 6; (dose: 100.0 mg/kg/injection, schedule: Q04DX003 (ip), vehicle: saline with Tween-80) 0 of 6; (dose: 200.0 mg/kg/injection, schedule: Q04DX003 (ip), vehicle: saline with Tween-80) 0 of 6.
As for `CC1(C)CCCC2(C)OC(=O)C=C12` (stereo unspecified), the survivor count is given as 3 of 6 (dose: 12.5 mg/kg/injection, schedule: Q01DX005 (ip), vehicle: distilled water + Tween-80); 0 of 6 (dose: 25.0 mg/kg/injection, schedule: Q01DX005 (ip), vehicle: distilled water + Tween-80); 0 of 6 (dose: 50.0 mg/kg/injection, schedule: Q01DX005 (ip), vehicle: distilled water + Tween-80); 0 of 6 (dose: 100.0 mg/kg/injection, schedule: Q01DX005 (ip), vehicle: distilled water + Tween-80); 0 of 6 (dose: 200.0 mg/kg/injection, schedule: Q01DX005 (ip), vehicle: distilled water + Tween-80).
Regarding `CC(=O)c1ccc[n+](Cc2c(Cl)cccc2Cl)c1`, the survivor count under setting [3] was 3 of 6 and the survivor count (dose: 100.0 mg/kg/injection, schedule: Q01DX009 (ip), vehicle: saline) is 3 of 6.
Consider `Cc1ccc2c(ccc(/C=C/c3ccc(O)c4ncccc34)[n+]2C)c1`, for which, for the setting “dose: 50.0 mg/kg/injection, schedule: Q01DX009 (ip), vehicle: saline with Tween-80”, the survivor count is listed as 5 of 6.
On to `O=C1CS/C(=N\C(=O)Nc2cccc(C(F)(F)F)c2)N1`, for which the survivor count reads like this: under setting [3], 6 of 6; under setting [2], 5 of 6; (dose: 200.0 mg/kg/injection, schedule: Q01DX009 (ip), vehicle: saline with Tween-80) 4 of 6.

The values above are taken from PubChem BioAssay AID330 (DTP/NCI, 2004).
